Values of other authors in patent US20090281111A1 (Fabre-Kramer Pharmaceuticals, Inc., priority 2008, published 2009).

Details: CYLERT one form; RITALIN and DEXEDRINE short-term tablets; cited from earlier work

| SMILES | duration of effect (lasts) |
| --- | --- |
| C[C@H](N)Cc1ccccc1 [DEXEDRINE, dextroamphetamine] | about 3 hours |
| COC(=O)C(c1ccccc1)C1CCCCN1 (centres unmarked) [RITALIN, methylphenidate] | about 3 hours |
